Test results reported in PubChem BioAssay AID504810 (National Center for Advancing Translational Sciences (NCATS), 2011).
The whole screen tested about 330,000 compounds, of which about 670 (0.2%) were called active. The inconclusive results got no clear call from the source; some entries with a clear call stand among them for comparison.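 The calls were made as follows: active = activity change below a set negative limit, meaning inhibition stronger than a set level (cut at about -70% in these data); inconclusive = activity change between two set negative limits; inactive = the rest.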
% is scaled to controls: 0 for no effect and ±100 for the full control effect.

Chains of the proteins cited; added tags and fusions are not shown.
UniProt P16473, whole entry, looked up: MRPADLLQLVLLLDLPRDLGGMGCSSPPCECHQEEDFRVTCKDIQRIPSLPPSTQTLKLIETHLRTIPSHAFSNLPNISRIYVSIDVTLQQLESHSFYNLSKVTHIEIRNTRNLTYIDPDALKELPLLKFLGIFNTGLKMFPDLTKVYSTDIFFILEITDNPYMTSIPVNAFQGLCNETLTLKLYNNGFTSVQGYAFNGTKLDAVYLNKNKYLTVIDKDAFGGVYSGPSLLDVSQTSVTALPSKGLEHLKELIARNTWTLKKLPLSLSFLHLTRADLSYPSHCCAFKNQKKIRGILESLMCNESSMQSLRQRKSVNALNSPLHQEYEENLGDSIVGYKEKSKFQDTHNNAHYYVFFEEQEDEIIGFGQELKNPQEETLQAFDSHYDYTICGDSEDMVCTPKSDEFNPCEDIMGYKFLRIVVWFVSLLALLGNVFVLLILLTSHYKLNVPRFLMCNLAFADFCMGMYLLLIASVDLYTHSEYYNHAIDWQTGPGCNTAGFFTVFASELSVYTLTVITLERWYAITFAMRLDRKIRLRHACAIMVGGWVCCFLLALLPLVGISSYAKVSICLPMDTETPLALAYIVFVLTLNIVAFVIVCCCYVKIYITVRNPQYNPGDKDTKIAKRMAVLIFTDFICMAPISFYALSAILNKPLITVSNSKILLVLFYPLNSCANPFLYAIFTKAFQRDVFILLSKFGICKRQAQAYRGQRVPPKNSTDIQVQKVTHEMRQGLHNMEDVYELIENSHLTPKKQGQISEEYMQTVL

What follows are molecules tested against Thyrotropin receptor (Homo sapiens) (UniProt P16473) (assay: Antagonists of the Thyroid Stimulating Hormone Receptor: HTS campaign). Conditions: TSHR-expressing cells, TSH-stimulated cAMP HTRF, 2 h; at 11.5 µM; active compounds read low.
Method in brief: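 Cell-based HTRF cAMP assay; TSHR cells + compound, TSH EC80 (4nM final), 2 h, 37 deg C. Lysis with anti-cAMP cryptate and cAMP-d2, 30 min RT, read 665/620 nm.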
With `COc1ccc(NC(=O)/C(Cl)=C(/Cl)S(=O)Cc2ccc(Cl)cc2)cn1` (stereo not drawn) the activity change, negative = inhibition was inconclusive: -53%.
For `COc1ccc(-c2c(C(C)=O)c(C)nc3sc4c(c23)NC(c2ccccc2)NC4=O)cc1` (stereo not drawn), the activity change, negative = inhibition was inactive: -6.87%.
In the case of `CC1CCCC(N2CCN(S(=O)(=O)c3ccccc3)CC2)C1` (stereo not drawn), the activity change, negative = inhibition is reported as active: -108%.
With `O=C(CSc1nncn1-c1ccccn1)Nc1cccc(Cl)c1` the activity change, negative = inhibition was inactive: 10.7%.
For `Cc1ccc(C(=O)C2=C(O)C(=O)N(c3ncccn3)C2c2ccccc2F)o1` (stereo not drawn), the activity change, negative = inhibition was active: -111%.
In the case of `CC(C)C(c1nnnn1C1CCCC1)N1CCN(c2ccccc2F)CC1` (stereo not drawn), the activity change, negative = inhibition is reported as inconclusive: -60.3%.
With `CC1(C)CC(O)CC(C)(C)N1CC(O)COCc1ccccc1` (stereo not drawn) the activity change, negative = inhibition was active: -134%.
With `c1ccc2[nH]c(SCc3cn4cccnc4n3)nc2c1` the activity change, negative = inhibition was inactive: 1.07%.
`CCCCNC(=O)c1onc(CSc2ccccc2CC)c1C(=O)O` was tested, and the activity change, negative = inhibition was inconclusive: -57.5%.
For `CCC(=O)N1CCC(c2ccc(OC)cc2)=N1`, the activity change, negative = inhibition was inactive: 9.72%.
In the case of `CCOC(=O)COc1ccc(S(=O)(=O)NCCC2=CCCCC2)cc1`, the activity change, negative = inhibition is reported as inconclusive: -59.7%.
With `O=C(Nc1nc(-c2ccccc2)cs1)C1CCCN(S(=O)(=O)c2ccccc2)C1` (stereo not drawn) the activity change, negative = inhibition was active: -75.2%.
`O=C(NC(=S)Nc1ccc(S(=O)(=O)N2CCCC2)cc1)C1CC1` was tested, and the activity change, negative = inhibition was inactive: -1.92%.
With `O=C(NC1C2CC3CC(C2)CC1C3)c1ccc2c(c1)OCO2` (stereo not drawn) the activity change, negative = inhibition was active: -126%.
In the case of `N#CC1=C(N)NC(SCc2ccc(Br)cc2)=C(C#N)C12CCCCC2`, the activity change, negative = inhibition is reported as inconclusive: -65.8%.
In the case of `COc1ccc(Nc2ccc([N+](=O)[O-])c3nonc23)c(OC)c1`, the activity change, negative = inhibition is reported as inconclusive: -55.9%.
`CC(C)c1nnc(NC(=O)c2nc(S(=O)(=O)Cc3ccccc3F)ncc2Cl)s1` was tested, and the activity change, negative = inhibition was inconclusive: -58.2%.
In the case of `CC(=O)OCCNc1cc(Sc2nc3ccccc3[nH]2)c2nonc2c1[N+](=O)[O-]`, the activity change, negative = inhibition is reported as active: -88.4%.
For `CC(C)[C@H](NC(=O)OC(C)(C)C)c1nnc(S(=O)(=O)Cc2c(F)cccc2Cl)o1`, the activity change, negative = inhibition was inconclusive: -61.5%.
In the case of `CCCCn1c(NC(C)=O)c(C#N)c2nc3ccccc3nc21`, the activity change, negative = inhibition is reported as inconclusive: -54.9%.
For `CC(Oc1ccc(Cl)cc1Cl)c1nc(-c2ccc(NC(=O)c3ccncc3)cc2)no1` (stereo not drawn), the activity change, negative = inhibition was inconclusive: -50.2%.
In the case of `O=C(O)c1ccccc1NC(=O)c1ccccc1Nc1ccccc1`, the activity change, negative = inhibition is reported as inconclusive: -55.8%.
In the case of `Cc1ccc(-n2[nH]c(C)c(/C=N/Nc3ccc([N+](=O)[O-])cc3[N+](=O)[O-])c2=O)cc1C`, the activity change, negative = inhibition is reported as inconclusive: -63.7%.
`N#Cc1c([N+](=O)[O-])cc([N+](=O)[O-])cc1S(=O)(=O)Cc1ccccc1` was tested, and the activity change, negative = inhibition was active: -80.9%.
For `CCN(CC)S(=O)(=O)c1ccc(Oc2ccc(S(=O)(=O)N(CC)CC)cc2)cc1`, the activity change, negative = inhibition was inconclusive: -50.2%.
In the case of `COc1ccc(CCNc2ncnc3c2[nH]c2cc(OC)c(OC)cc23)cc1OC`, the activity change, negative = inhibition is reported as inconclusive: -51.8%.
With `CCOC(=O)c1cccc(NC(=O)CCc2nnc3ccc(N4CCN(C)CC4)nn23)c1` the activity change, negative = inhibition was inactive: 6.06%.
For `Cc1ccc2c(CN3CCN(S(=O)(=O)c4ccc5c(c4)OCCO5)CC3)cc(=O)oc2c1C`, the activity change, negative = inhibition was inconclusive: -53.7%.
`Cc1cc(/C=N/n2c(COc3ccccc3C)nc3ccccc3c2=O)c(O)c([N+](=O)[O-])c1` was tested, and the activity change, negative = inhibition was inconclusive: -62.2%.
For `CCN1/C(=C/c2ccc3cc(C)ccc3[n+]2CC)Sc2ccccc21`, the activity change, negative = inhibition was inconclusive: -55%.
For `CSc1c(SCc2ccccc2)cnn(Cc2ccccc2)c1=O`, the activity change, negative = inhibition was inconclusive: -56.5%.
`CC(C)(C)OC(=O)N/N=C/c1cc(N=Nc2ccccc2)ccc1O` was tested, and the activity change, negative = inhibition was inconclusive: -51%.
In the case of `Cc1nc(N2CCN(S(=O)(=O)c3ccc(Br)cc3)CC2)c2c(C)c(C)sc2n1`, the activity change, negative = inhibition is reported as inactive: -18.2%.
With `CC(C)(C)C1CCC(C(=O)OCC(=O)c2ccc[nH]2)CC1` (stereo not drawn) the activity change, negative = inhibition was inconclusive: -64.5%.
For `CN(CC(=O)Nc1ccccc1Cl)C(=O)COC(=O)c1nc(Cl)c(Cl)c(Cl)c1Cl`, the activity change, negative = inhibition was active: -89%.
In the case of `O=C(CCc1nnc2n(Cc3ccc(Cl)cc3)c(=O)c3ccccc3n12)N1CCN(c2ccccn2)CC1`, the activity change, negative = inhibition is reported as active: -134%.
For `CCOC(=O)/C(C#N)=C1/C=C(C)NC(c2ccccc2O)=N1`, the activity change, negative = inhibition was inconclusive: -62.5%.
In the case of `O=S(=O)(Cc1cc(Cl)nc(-c2cccnc2)n1)c1ccccc1`, the activity change, negative = inhibition is reported as inconclusive: -64.2%.
With `CCSc1nnc(NC(=O)CSc2nccn2-c2cc(C)cc(C)c2)s1` the activity change, negative = inhibition was inactive: -1.73%.
With `c1ccc2c(c1)CCN(c1nc3cc4c(cc3s1)OCCO4)C2` the activity change, negative = inhibition was inconclusive: -62.5%.
In the case of `CCCC(=O)N1CCN(c2ccc(NC(=O)c3cc4ccccc4o3)cc2Cl)CC1`, the activity change, negative = inhibition is reported as active: -86.7%.
In the case of `CCn1c(=S)sc2c(=O)n(CC(=O)Nc3ccccc3C(F)(F)F)c(C)nc21`, the activity change, negative = inhibition is reported as active: -127%.
In the case of `COC(=O)c1sc(-c2ccc(C(C)(C)C)cc2)cc1NC(=O)/C=C/C(=O)O`, the activity change, negative = inhibition is reported as inconclusive: -56.9%.
